Values of other authors, collected in patent US20240342302A1, “DEGRADER-ANTIBODY CONJUGATES AND METHODS OF USING SAME” (Angiex, Inc., priority 2021, published 2024).
For at least one compound, name, drawing or mass did not settle the structure.

Conditions: Phase II FALCON study; reduced from 16.2

Compound: COc1ccc(/C=C\c2cc(OC)c(OC)c(OC)c2)cc1OP(=O)(O)O [CA4P]
- overall survival: 13.6 months
